Differences between knockout arms are mostly noise.
Tested on: MDA-MB-231
Assay: relative cell number vs DMSO control (72 h) (% of DMSO); higher = less growth inhibition (more cells)
Procedure: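 QMAP-Seq: a pool of 5 breast cancer cell lines (ZR-75-1, SKBR3, HCC-38, MDA-MB-231, BT-20), each carrying 12 doxycycline-inducible Cas9 sgRNA perturbations (11 knockouts plus non-targeting sgNT), was treated with compounds for 72 h at four 10-fold doses (10 nM-10 uM or 1 nM-1 uM range). Barcodes were amplified and sequenced, and cell number was interpolated from 293T spike-in standard curves. The result is expressed as % of the median of DMSO wells. Two biological replicates.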

Cc1sc2c(c1C)C(c1ccc(Cl)cc1)=N[C@@H](CC(=O)OC(C)(C)C)c1nnc(C)n1-2 [(+)-JQ1]
Settings | relative cell number
sgRNA knockout: sgATF3, 10 nM | 72
sgRNA knockout: sgATF3, 100 nM | 92.8
sgRNA knockout: sgATF3, 1000 nM | 99.7
sgRNA knockout: sgATF3, 10000 nM | 59.6
sgRNA knockout: sgATF4, 10 nM | 104
sgRNA knockout: sgATF4, 100 nM | 142
sgRNA knockout: sgATF4, 1000 nM | 83.1
sgRNA knockout: sgATF4, 10000 nM | 62.4
sgRNA knockout: sgATF6, 10 nM | 89.8
sgRNA knockout: sgATF6, 100 nM | 115
sgRNA knockout: sgATF6, 1000 nM | 101
sgRNA knockout: sgATF6, 10000 nM | 67.2
sgRNA knockout: sgATG7, 10 nM | 96.1
sgRNA knockout: sgATG7, 100 nM | 102
sgRNA knockout: sgATG7, 1000 nM | 96
sgRNA knockout: sgATG7, 10000 nM | 69.26
sgRNA knockout: sgERN1, 10 nM | 107
sgRNA knockout: sgERN1, 100 nM | 117
sgRNA knockout: sgERN1, 1000 nM | 113
sgRNA knockout: sgERN1, 10000 nM | 77.6
sgRNA knockout: sgHSF1, 10 nM | 99.4
sgRNA knockout: sgHSF1, 100 nM | 95.66
sgRNA knockout: sgHSF1, 1000 nM | 89.3
sgRNA knockout: sgHSF1, 10000 nM | 59.1
sgRNA knockout: sgHSF2, 10 nM | 84.5
sgRNA knockout: sgHSF2, 100 nM | 86.7
sgRNA knockout: sgHSF2, 1000 nM | 80.1
sgRNA knockout: sgHSF2, 10000 nM | 44.6
sgRNA knockout: sgKEAP1, 10 nM | 101
sgRNA knockout: sgKEAP1, 100 nM | 101
sgRNA knockout: sgKEAP1, 1000 nM | 110
sgRNA knockout: sgKEAP1, 10000 nM | 90.3
sgRNA knockout: sgNFE2L2, 10 nM | 93.6
sgRNA knockout: sgNFE2L2, 100 nM | 120
sgRNA knockout: sgNFE2L2, 1000 nM | 90.1
sgRNA knockout: sgNFE2L2, 10000 nM | 59.5
sgRNA knockout: sgSLC35F2, 10 nM | 93.5
sgRNA knockout: sgSLC35F2, 100 nM | 101
sgRNA knockout: sgSLC35F2, 1000 nM | 94.4
sgRNA knockout: sgSLC35F2, 10000 nM | 52.2
sgRNA knockout: sgXBP1, 10 nM | 92
sgRNA knockout: sgXBP1, 100 nM | 105
sgRNA knockout: sgXBP1, 1000 nM | 107
sgRNA knockout: sgXBP1, 10000 nM | 65.9

Reference: the supplement of paper PMC7661543
